In article PMC4354016, “Centromeric binding and activity of Protein Phosphatase 4” (Nature Communications, 2015):
Read-outs that look alike come from different tables or passages of the source. Results are given in words; binding and its absence hold for the method and conditions named. In cells and extracts the contact can be indirect. Here binding means that the protein was enriched with, or labelled near, the bait; the list need not be complete. For some of these results: A no says only that the protein was not detected with the bait. For some of these results: Where a sequence is shown, tags or fusion partners need not be part of it. Each block holds one molecule with its values, some of them ahead of it.

Sequences of proteins named here, by UniProt entry; tags and fusion partners are left off. A change or cut given only in a name is not applied to a line headed by its entry.
UniProt Q9W2U4: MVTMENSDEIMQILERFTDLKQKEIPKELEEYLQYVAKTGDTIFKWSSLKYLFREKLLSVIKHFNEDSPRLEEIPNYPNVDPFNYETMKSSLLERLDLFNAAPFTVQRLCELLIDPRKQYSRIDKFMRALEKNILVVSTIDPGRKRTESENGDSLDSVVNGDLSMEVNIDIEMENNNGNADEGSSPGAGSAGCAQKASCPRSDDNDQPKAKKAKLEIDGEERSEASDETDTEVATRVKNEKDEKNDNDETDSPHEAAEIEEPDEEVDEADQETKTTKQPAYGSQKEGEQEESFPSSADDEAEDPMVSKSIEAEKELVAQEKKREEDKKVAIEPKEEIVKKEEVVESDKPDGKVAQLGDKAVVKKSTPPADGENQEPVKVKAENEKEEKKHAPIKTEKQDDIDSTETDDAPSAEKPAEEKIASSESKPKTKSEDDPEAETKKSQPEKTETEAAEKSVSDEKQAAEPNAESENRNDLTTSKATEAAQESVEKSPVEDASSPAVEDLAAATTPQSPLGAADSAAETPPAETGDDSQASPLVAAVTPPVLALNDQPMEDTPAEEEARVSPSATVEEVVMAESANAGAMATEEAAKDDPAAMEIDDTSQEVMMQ

Columns and labels:
[1] = biological target: protein A-tagged Flfl expressed in Drosophila syncytial embryos (Drosophila melanogaster) (UniProt Q9VFS5); assay: affinity purification with mass spectrometry; protein A-tagged bait from 1 g transgenic Drosophila syncytial embryos, extraction buffer, DNase I, rabbit IgG Dynabeads, LC-MS/MS
[2] = biological target: T1, FLAG::CENP-C^ΔFIM (Drosophila melanogaster) (UniProt Q9VHP9); assay: affinity purification with mass spectrometry; FLAG::CENP-C^WT or FLAG::CENP-C^ΔFIM purified from ~10^9 stably transfected D.Mel-2 cells on anti-FLAG M2 magnetic beads; mass spectrometry
T1 sequence: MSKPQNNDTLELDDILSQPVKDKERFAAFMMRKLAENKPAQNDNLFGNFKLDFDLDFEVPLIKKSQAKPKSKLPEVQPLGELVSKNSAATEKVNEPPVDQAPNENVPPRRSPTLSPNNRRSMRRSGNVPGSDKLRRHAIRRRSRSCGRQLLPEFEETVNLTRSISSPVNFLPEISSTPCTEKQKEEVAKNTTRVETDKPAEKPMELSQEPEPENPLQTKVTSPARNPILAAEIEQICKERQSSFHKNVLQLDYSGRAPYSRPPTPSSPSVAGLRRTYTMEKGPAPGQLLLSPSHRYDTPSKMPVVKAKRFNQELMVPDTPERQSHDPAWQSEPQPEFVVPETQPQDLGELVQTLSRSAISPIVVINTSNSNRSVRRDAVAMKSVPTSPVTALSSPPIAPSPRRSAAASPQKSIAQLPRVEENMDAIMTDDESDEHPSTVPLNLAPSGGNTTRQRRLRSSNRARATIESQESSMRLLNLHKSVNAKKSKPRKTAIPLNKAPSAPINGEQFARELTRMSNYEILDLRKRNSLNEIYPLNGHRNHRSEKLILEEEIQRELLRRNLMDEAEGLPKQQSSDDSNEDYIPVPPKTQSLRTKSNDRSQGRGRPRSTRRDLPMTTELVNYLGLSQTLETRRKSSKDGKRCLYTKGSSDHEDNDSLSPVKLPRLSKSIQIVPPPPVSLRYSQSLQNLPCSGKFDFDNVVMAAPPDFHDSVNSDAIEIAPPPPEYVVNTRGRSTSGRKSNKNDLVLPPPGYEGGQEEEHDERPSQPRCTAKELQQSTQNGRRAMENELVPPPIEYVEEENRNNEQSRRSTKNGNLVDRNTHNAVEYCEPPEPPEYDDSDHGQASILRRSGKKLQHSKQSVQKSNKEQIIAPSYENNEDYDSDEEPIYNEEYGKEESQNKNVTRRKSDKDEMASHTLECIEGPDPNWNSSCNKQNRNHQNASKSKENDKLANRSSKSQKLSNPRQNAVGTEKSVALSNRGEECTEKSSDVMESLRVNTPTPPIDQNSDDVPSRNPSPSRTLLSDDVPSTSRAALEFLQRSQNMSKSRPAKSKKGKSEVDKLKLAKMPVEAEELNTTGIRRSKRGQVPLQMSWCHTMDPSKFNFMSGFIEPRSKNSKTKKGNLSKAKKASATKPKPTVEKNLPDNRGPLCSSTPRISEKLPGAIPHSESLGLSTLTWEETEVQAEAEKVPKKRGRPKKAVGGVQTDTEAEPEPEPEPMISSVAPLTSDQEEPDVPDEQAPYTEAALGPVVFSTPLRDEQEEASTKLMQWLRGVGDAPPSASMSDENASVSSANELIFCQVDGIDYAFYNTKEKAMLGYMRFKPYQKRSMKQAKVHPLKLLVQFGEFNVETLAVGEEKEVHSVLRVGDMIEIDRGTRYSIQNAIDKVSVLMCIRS

[3] = biological target: Protein A::Falafel (Drosophila melanogaster) (UniProt Q9VFS5); assay: affinity purification with mass spectrometry; protein A-tagged bait from ~10^9 D.Mel-2 cells, lysate in extraction buffer (50 mM HEPES pH 7.5, 0.5% NP-40), DNase I, rabbit IgG Dynabeads 2 h 4 °C, LC-MS/MS, Mascot
[4] = biological target: T2, protein A-tagged CENP-C expressed in Drosophila syncytial embryos (Drosophila melanogaster) (UniProt Q9VHP9); assay: affinity purification with mass spectrometry; protein A-tagged bait from 1 g transgenic Drosophila syncytial embryos, extraction buffer, DNase I, rabbit IgG Dynabeads, LC-MS/MS
T2 sequence: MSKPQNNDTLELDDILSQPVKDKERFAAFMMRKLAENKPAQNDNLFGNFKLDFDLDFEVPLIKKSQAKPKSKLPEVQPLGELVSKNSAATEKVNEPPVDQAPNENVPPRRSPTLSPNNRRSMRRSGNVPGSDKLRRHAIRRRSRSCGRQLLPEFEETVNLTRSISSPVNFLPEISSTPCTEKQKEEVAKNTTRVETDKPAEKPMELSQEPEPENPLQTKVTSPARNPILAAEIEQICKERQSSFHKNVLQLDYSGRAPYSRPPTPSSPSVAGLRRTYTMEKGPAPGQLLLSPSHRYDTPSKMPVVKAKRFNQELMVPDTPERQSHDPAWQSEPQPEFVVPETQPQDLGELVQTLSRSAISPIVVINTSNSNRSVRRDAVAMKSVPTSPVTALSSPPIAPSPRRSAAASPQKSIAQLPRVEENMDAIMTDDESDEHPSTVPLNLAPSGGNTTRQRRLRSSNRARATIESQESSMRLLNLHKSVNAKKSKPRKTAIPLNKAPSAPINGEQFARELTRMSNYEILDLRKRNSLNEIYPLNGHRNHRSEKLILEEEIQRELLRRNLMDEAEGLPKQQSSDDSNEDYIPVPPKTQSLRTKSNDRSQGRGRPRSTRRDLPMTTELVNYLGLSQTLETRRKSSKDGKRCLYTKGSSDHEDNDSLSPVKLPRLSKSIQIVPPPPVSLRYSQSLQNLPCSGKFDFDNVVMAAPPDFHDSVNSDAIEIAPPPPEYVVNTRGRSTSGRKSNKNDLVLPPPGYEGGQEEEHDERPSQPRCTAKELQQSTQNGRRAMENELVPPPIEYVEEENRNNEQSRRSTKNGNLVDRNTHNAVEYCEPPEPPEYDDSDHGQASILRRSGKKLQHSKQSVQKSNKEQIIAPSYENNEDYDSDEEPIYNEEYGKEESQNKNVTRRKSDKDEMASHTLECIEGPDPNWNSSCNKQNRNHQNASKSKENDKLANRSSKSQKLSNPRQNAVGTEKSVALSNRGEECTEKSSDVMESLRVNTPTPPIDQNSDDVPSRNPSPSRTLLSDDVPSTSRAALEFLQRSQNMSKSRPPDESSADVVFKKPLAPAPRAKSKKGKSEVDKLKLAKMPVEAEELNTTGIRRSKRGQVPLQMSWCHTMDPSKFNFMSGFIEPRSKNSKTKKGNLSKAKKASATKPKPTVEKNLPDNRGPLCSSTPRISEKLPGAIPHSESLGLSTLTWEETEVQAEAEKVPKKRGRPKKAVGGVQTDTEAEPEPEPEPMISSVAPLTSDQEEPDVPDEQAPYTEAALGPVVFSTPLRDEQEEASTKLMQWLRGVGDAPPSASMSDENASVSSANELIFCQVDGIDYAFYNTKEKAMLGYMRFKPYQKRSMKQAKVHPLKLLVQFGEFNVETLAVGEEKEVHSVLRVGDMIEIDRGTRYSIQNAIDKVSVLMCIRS

[5] = biological target: T3, CENP-C::protein A (Drosophila melanogaster) (UniProt Q9VHP9); assay: affinity purification with mass spectrometry; protein A-tagged bait from ~10^9 D.Mel-2 cells, lysate in extraction buffer (50 mM HEPES pH 7.5, 0.5% NP-40), DNase I, rabbit IgG Dynabeads 2 h 4 °C, LC-MS/MS, Mascot
T3 sequence: T2 sequence

[6] = biological target: Protein A::Falafel (Drosophila melanogaster) (UniProt Q9VFS5); assay: as above; remark: listed apart in the source
[7] = biological target: protein A::Flfl^169–973 (Drosophila melanogaster) (UniProt Q9VFS5); assay: as above
[8] = biological target: T4, protein A::Flfl^1–168 (Drosophila melanogaster) (UniProt Q9VFS5); assay: as above
T4 sequence: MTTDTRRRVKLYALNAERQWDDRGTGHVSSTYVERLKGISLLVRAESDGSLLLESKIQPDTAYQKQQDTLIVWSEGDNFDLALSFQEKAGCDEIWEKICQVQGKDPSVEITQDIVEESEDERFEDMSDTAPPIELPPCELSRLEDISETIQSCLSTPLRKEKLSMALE

binding [1]: binds
binding [2]: no binding
binding [3]: binds
Molecule: R2, endogenous (from UniProt Q9W2U4)

binding [4]: binds
binding [2]: no binding
binding [5]: binds
B1: Falafel (Flfl), endogenous (protein, UniProt Q9VFS5 1-980)
chain: MTTDTRRRVKLYALNAERQWDDRGTGHVSSTYVERLKGISLLVRAESDGSLLLESKIQPDTAYQKQQDTLIVWSEGDNFDLALSFQEKAGCDEIWEKICQVQGKDPSVEITQDIVEESEDERFEDMSDTAPPIELPPCELSRLEDISETIQSCLSTPLRKEKLSMALESESYIKKLLNLFHVCEDLDNTEGLHHLFEIFKNIFLLNKNALFEIMFADDTIFDVVGCLEYDPSVSQPKKHRQYLKQLAKFREAVPIKNLDLLAKIHQTFRVQYIQDIILPTPSVFVEDNMLNTLSSFIFFNKVEIVTMIQDDERYLLDVFAVLTDPTTGDAKRRDTVLFLKEFCNYAQNLQPQGKDSFYKTLTCLGILQALELTLVMNDKKTKSASIDILTAIVEFSPLVVRNYTLNQANRPEVERMLLNIAIEQMLNDSEPELGIAVQLMGIVKILLEPENMLTEKGDFLNFFYKYSVQTLVAPVILNTIGDRPQNEDYQTAQLLGIVLDILSFCVEHHSYHIKNFLLQKDLLKRILVLMKSTHTFLVLGALRLLRKIIALKDEFYNRHIVKCNLFAPVVDAFIRNNGRYNLLESAILELFEFIKLEDIRTLCVYFVENFSKIFDEIEYVQTFKYLKNRYDQYQDRLKDRDKMENRTDGGLPIIRSGGRFRRDQRQMEEEEEMWFNEEDDFTEEIDTYNNVMKSVSEKNGPQTQNQQKSSPPHSTSPHSGLLGSLSTTASSTATSATSGAPVASGSSSPEAISADEQTQAAVHLAAAALQHHQQQQQQQQQNPFQQQTQPEIAELQQQLSSVEAPQSQELELSQSAAASASPTSSSSSLEASTSSSSASSSSSSSSSSSPPGSSAAASLCDSATVAAVAASQFLSTIATAMAASVTAAAATNSSPSISPAPAVSSPDIENADAQLPPSDDASSPASGEQDANSTEGTSSEADKTTAKKGLVDYESDSGEDDYEEDEYSEGPQAQKRARQA

binding [1]: binds
binding [6]: binds
binding [7]: no binding
binding [8]: binds
B2: centromeric protein C (CENP-C), endogenous (protein, UniProt Q9VHP9 1-1411)
chain: T2 sequence
